According to PubChem BioAssay AID2662 (National Center for Advancing Translational Sciences (NCATS), 2010):
Out of some 290,000 compounds screened, about 110 (0.038%) were called active. The shares of active, inactive and inconclusive entries below differ from those in the screen. Calls follow the shape of the dose curve; as a rule, active = well fitted inhibition curve with a large enough effect in the polarisation, with a control signal flat (not every such curve was filed as active); inconclusive = small, poorly fitted or top-dose-only effect, or effect the other way, or a change in a side signal; inactive = no such curve, though single readings can be large or run the other way; the % refers to the polarisation. Where the call is inconclusive, the potency comes from a doubtful curve fit. “Side channel” marks fits to a control or component signal instead of the main read-out.

Sequences of proteins named here, by UniProt entry; tags and fusion partners are left off.
UniProt Q03164, whole entry, looked up: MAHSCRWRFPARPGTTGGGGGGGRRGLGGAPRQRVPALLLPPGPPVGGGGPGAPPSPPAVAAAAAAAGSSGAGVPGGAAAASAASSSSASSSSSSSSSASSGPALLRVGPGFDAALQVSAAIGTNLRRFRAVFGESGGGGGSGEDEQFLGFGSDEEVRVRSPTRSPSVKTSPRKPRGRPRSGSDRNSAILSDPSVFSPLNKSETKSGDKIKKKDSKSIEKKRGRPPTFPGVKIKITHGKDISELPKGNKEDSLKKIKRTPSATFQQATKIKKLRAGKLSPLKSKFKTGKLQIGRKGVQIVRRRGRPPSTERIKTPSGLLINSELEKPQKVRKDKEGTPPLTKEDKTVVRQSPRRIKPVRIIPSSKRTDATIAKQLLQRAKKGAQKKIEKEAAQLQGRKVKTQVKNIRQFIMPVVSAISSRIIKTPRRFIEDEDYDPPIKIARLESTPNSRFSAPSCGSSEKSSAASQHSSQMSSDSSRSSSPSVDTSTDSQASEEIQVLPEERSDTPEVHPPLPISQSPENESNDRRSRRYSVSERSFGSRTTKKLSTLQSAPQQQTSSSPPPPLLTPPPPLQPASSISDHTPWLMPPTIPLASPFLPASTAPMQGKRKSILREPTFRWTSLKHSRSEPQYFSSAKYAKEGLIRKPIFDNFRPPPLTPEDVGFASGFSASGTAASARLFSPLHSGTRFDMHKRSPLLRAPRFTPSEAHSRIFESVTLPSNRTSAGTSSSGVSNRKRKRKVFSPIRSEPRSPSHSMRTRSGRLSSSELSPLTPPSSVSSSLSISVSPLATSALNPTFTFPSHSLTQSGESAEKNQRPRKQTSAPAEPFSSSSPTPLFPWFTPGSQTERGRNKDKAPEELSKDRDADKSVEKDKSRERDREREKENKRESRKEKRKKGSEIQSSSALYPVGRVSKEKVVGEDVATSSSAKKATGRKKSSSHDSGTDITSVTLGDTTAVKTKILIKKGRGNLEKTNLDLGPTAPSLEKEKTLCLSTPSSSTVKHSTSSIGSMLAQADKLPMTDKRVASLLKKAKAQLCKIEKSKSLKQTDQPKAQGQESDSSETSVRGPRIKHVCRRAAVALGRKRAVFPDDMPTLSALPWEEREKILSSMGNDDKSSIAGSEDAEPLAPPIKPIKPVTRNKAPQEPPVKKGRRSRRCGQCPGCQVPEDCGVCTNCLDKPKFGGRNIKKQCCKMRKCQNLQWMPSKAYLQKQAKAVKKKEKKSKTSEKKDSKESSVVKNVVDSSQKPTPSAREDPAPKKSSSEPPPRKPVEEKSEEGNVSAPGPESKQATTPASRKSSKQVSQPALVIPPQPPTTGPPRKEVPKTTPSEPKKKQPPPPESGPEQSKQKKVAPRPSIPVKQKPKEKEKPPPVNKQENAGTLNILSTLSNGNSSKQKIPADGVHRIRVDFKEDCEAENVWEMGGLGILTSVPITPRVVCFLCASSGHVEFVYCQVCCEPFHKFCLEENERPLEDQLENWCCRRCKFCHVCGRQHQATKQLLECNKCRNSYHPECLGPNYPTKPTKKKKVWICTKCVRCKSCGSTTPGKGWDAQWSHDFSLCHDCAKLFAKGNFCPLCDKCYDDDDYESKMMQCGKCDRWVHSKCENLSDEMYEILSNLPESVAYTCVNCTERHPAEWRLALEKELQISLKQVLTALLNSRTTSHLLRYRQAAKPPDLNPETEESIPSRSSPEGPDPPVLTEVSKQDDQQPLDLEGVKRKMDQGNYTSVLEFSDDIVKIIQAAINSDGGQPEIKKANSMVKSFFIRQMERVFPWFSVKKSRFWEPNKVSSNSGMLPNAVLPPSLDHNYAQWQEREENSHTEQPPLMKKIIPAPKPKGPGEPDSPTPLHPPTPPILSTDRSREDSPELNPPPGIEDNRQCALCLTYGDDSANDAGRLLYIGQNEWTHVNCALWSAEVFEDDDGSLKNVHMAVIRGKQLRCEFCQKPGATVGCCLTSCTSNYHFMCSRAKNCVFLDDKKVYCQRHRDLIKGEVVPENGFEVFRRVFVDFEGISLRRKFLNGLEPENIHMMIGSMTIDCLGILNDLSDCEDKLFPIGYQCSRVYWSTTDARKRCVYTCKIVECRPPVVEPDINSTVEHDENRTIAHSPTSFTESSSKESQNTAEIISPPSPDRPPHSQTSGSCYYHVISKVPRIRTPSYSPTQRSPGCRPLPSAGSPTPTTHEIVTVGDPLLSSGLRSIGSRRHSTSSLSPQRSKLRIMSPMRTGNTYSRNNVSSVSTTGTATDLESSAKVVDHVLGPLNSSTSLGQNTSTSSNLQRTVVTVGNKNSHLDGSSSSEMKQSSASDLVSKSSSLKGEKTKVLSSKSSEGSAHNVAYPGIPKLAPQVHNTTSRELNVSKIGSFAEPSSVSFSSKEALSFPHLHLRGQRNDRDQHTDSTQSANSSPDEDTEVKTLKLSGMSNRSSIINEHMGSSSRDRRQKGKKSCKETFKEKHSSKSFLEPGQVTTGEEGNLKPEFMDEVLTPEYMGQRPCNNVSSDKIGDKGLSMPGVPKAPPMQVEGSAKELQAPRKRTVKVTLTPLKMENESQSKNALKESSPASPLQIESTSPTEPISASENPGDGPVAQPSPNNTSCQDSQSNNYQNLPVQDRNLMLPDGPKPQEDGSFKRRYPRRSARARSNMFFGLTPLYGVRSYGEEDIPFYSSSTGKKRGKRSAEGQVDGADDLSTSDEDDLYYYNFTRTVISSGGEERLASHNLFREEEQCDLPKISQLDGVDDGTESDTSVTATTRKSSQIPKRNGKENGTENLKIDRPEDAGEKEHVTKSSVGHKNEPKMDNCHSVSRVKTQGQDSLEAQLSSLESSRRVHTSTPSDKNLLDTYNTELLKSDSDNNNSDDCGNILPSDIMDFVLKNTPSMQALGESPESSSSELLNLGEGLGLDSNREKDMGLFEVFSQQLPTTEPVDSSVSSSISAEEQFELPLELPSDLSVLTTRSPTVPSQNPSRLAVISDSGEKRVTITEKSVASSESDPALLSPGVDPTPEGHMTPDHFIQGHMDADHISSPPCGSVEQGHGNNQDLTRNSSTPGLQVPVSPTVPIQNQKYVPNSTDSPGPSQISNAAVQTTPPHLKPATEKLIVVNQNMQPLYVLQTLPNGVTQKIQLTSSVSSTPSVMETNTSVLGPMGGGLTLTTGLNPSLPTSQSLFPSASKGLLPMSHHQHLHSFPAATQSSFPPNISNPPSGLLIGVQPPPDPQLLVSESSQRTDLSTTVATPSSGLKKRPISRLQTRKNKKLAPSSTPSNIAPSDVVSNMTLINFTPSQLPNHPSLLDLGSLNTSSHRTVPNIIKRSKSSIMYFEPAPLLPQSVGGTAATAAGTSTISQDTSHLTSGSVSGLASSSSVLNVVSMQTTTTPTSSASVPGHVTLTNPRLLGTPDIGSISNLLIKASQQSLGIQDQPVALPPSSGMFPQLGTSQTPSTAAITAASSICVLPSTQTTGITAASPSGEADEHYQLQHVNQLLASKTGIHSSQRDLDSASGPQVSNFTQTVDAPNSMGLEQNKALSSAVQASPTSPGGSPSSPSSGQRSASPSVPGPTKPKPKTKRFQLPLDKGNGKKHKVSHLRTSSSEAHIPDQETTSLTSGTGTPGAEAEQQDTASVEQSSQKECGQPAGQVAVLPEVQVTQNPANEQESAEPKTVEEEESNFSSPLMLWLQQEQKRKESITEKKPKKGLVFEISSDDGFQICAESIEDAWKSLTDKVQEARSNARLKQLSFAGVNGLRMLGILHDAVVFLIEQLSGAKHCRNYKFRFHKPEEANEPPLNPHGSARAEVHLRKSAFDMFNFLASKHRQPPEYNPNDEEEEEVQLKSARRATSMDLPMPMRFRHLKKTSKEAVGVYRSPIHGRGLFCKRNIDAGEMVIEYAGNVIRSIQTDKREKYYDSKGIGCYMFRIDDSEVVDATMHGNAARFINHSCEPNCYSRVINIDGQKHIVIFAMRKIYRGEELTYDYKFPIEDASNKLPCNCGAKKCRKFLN

Target: Histone-lysine N-methyltransferase 2A (Homo sapiens) (UniProt Q03164)
Test: qHTS Fluorescence Polarization Assay for Inhibitors of MLL CXXC domain - DNA interaction
Details: MLL-CXXC / FITC-HOXA9 DNA fluorescence polarization; activity change, negative = inhibition: at 115 µM (top of the series)
Method in brief: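 Steps: dispense CXXC domain solution (7 uM) → pin compounds or unlabeled HOX-A9 DNA control → 5 min ambient → add FLSN-HOX-A9 solution (50 nM) → spin → 30 min ambient → fluorescence polarization. Tris pH 7.5/NaCl/DTT/BSA buffer.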
Potency is read from the fitted curve at half-maximal effect.

| Structure (SMILES) | Potency | activity change, negative = inhibition |
| --- | --- | --- |
| CCOC(=O)/C(=C/C=C1\Sc2cc(C)c(C)cc2N1CC)C(C)=O | inconclusive: 3.16 µM [fluorescent, side channel, full curve] | – |
| CCC(=O)N1CCc2cc(S(=O)(=O)N(C)c3ccc(OC)cc3OC)ccc21 | inconclusive: 63.1 µM [fluorescent, single point] | – |
| CC(=O)OCCNc1cc(N2CCN(C)CC2)c2noc3c2c1C(=O)c1ccccc1-3 | inconclusive: 39.8 µM [fluorescent, side channel, partial curve] | – |
| Cc1c(-c2c(C#N)c(N)nc3c2CCCCCC3)cnn1C | – | inactive: 5.54% |
| CNc1ncnc2sc(-c3ccccc3)cc12 | – | inactive: -5.45% |
| CCCc1cc(=O)n2[nH]c(SCc3ccc(Cl)cc3)nc2n1 | inconclusive: 89.1 µM [fluorescent, side channel, single point] | – |
| CN1C(=O)c2cccc(NCCCN3C(=O)c4ccccc4C3=O)c2C1=O | inconclusive: 63.1 µM [fluorescent, side channel, single point] | – |
| COC(CNC(=O)c1ccc2c(c1)nc(C)n2-c1ccc(F)c(F)c1)OC | – | inactive: -2.8% |
| COc1cccc(C2C(C(=O)c3ccco3)=C(O)C(=O)N2CCN(C)C)c1OC (centres undefined) | – | inactive: 17.6% |
| COc1ccc(C2CC(c3ccccc3)=NN2c2ccc(/C=N/NC(=O)c3ccncc3)cc2)cc1 (centres undefined) | inconclusive: 89.1 µM [fluorescent, side channel, single point] | – |
| COc1ccccc1C(=O)NC(CCSC)C(=O)NNC(=O)c1csc(N2CCOCC2)n1 (centres undefined) | – | inactive: -2.58% |
| N#C/C(=C\c1ccc(C#N)cc1)C(=O)c1ccccc1 | inconclusive: 44.7 µM [inhibitor, partial curve] | – |
| Clc1ccc(-c2cn3cc(Cl)ccc3n2)cc1 | – | inactive: -1.02% |
| O=C1C(Nc2ccccc2)=C/C(=N/S(=O)(=O)c2cccs2)c2ccccc21 | – | inactive: -6.22% |
| O=C(NCCc1ccc(F)cc1)Nc1ccc([N+](=O)[O-])cc1 | – | inactive: 12.2% |
| Cc1ccc(NCc2ccc(O)c3ncccc23)cc1C | – | inactive: 26.6% |
| COc1ccc(NC(=O)CS(=O)c2ccc(Cl)c(Cl)c2)cc1 (centres undefined) | inconclusive: 12.6 µM [quencher, side channel, single point] | – |
| COc1ccc(C2CC(c3cccs3)=NN2C(=O)CSc2nncs2)cc1OC (centres undefined) | inconclusive: 112 µM [quencher, side channel, partial curve] | – |
| CN(C)C=Nc1c(Br)cc(Br)c2nonc12 | inconclusive: 35.5 µM [fluorescent, side channel, partial curve] | – |
| COc1ccc(Cl)cc1C(Nc1cccnc1)c1ccc2cccnc2c1O (centres undefined) | – | inactive: 45.1% |
| O=C(NCc1ccco1)C(=O)c1cn(CC(=O)N2CCCCCC2)c2ccccc12 | inconclusive: 89.1 µM [inhibitor, single point] | – |
| Cc1nc2ncnn2c(C)c1Cc1ccc(Cl)cc1F | inconclusive: 14.1 µM [fluorescent, single point] | – |

Compounds shown so far with sulfur:

| Structure (SMILES) | Potency | activity change, negative = inhibition |
| --- | --- | --- |
| CCOC(=O)/C(=C/C=C1\Sc2cc(C)c(C)cc2N1CC)C(C)=O | inconclusive: 3.16 µM [fluorescent, side channel, full curve] | – |
| CCC(=O)N1CCc2cc(S(=O)(=O)N(C)c3ccc(OC)cc3OC)ccc21 | inconclusive: 63.1 µM [fluorescent, single point] | – |
| CNc1ncnc2sc(-c3ccccc3)cc12 | – | inactive: -5.45% |
| CCCc1cc(=O)n2[nH]c(SCc3ccc(Cl)cc3)nc2n1 | inconclusive: 89.1 µM [fluorescent, side channel, single point] | – |
| COc1ccccc1C(=O)NC(CCSC)C(=O)NNC(=O)c1csc(N2CCOCC2)n1 (centres undefined) | – | inactive: -2.58% |
| O=C1C(Nc2ccccc2)=C/C(=N/S(=O)(=O)c2cccs2)c2ccccc21 | – | inactive: -6.22% |
| COc1ccc(NC(=O)CS(=O)c2ccc(Cl)c(Cl)c2)cc1 (centres undefined) | inconclusive: 12.6 µM [quencher, side channel, single point] | – |
| COc1ccc(C2CC(c3cccs3)=NN2C(=O)CSc2nncs2)cc1OC (centres undefined) | inconclusive: 112 µM [quencher, side channel, partial curve] | – |

Following part

| Structure (SMILES) | Potency | activity change, negative = inhibition |
| --- | --- | --- |
| O=C1C(=O)N(CCCc2ccccc2)c2ccccc21 | – | inactive: -10.4% |
| Cn1c(-c2ccc3c(c2)OCO3)cnc1N | inconclusive: 63.1 µM [quencher, side channel, single point] | – |
| c1ccc(-c2cc(N3CCOCC3)nc3ccccc23)cc1 | – | inactive: -0.778% |
| CCN1/C(=C\C=C(C(C)=O)C(C)=O)Sc2ccccc21 | inconclusive: 35.5 µM [fluorescent, side channel, partial curve] | – |
| CCCN(CCC)c1nc2c(C)cccn2c(=O)c1/C=C1/SC(=S)N(Cc2ccco2)C1=O | inconclusive: 17.8 µM [fluorescent, side channel, partial curve] | – |
| O=C1C=C(Nc2cccc3cccnc23)c2ccccc2C1=O | inconclusive: 31.6 µM [quencher, single point] | – |
| Cc1[nH]n(-c2cccc(Cl)c2)c(=O)c1-c1ccc(Cl)cc1 | inconclusive: 10 µM [fluorescent, side channel, single point] | – |
| O=C(CCCn1c(=S)[nH]c2ccsc2c1=O)NCc1ccco1 | – | inactive: -1.87% |
| Cc1ccc(CC(C(=O)O)C(C)C(=O)Nc2ccc(F)cc2)cc1 (centres undefined) | inconclusive: 31.6 µM [inhibitor, single point] | – |
| COc1ccccc1Oc1coc2c(CN3CCN(C)CC3)c(O)ccc2c1=O | – | inactive: 9.95% |
| COC(=O)CNc1c(-c2ccccn2)nc2ccc(Br)cn12 | inconclusive: 89.1 µM [inhibitor, single point] | – |
| CCCOc1ccc(/C=N/Nc2cccc([N+](=O)[O-])c2)c(O)c1 | inconclusive: 11.2 µM [fluorescent, full curve] | – |
| Cc1ccc(NC(=O)/C=C/c2ccc([N+](=O)[O-])s2)c(C)c1 | inconclusive: 63.1 µM [fluorescent, side channel, single point] | – |
| O=[N+]([O-])c1ccc(N=Nc2c(Cl)cc(O)cc2Cl)cc1 | inconclusive: 6.31 µM [quencher, side channel, full curve] | – |
| CC[C@@]1(O)C[C@H](O[C@H]2C[C@@H](N(C)C)[C@@H](O[C@H]3C[C@@H](O)[C@@H](O[C@H]4CCC(=O)[C@@H](C)O4)[C@@H](C)O3)[C@@H](C)O2)c2c(cc3c(c2O)C(=O)c2c(O)cccc2C3=O)[C@H]1C(=O)OC | inconclusive: 35.5 µM [quencher, side channel, partial curve] | – |
| CCCCCCCCCCCCCCCCCC(=O)OCC(O)CO (centres undefined) | inconclusive: 31.6 µM [fluorescent, side channel, full curve] | – |
| Cc1sc2ncnc(N/N=C/c3ccccc3O)c2c1C | inconclusive: 5.01 µM [quencher, side channel, full curve] | – |
| O=C(Nc1ncc(Cc2cccc(Cl)c2Cl)s1)C1CCCO1 (centres undefined) | – | inactive: 7.18% |
| Cc1ccc(NC(=O)c2cc([N+](=O)[O-])ccc2Cl)c(O)c1 | inconclusive: 70.8 µM [inhibitor, single point] | – |
| Cc1cc(C)cc(N2C(=O)C3CCCN3C2=S)c1 (centres undefined) | inconclusive: 14.1 µM [fluorescent, side channel, single point] | – |
| CN(CC(=O)Nc1ccc(Cl)cc1)C(=O)CNC(=O)c1ccc2ccccc2c1 | inconclusive: 14.1 µM [fluorescent, side channel, single point] | – |
| CSc1nc(Cl)cc(N2CCOCC2)n1 | inconclusive: 0.891 µM [fluorescent, side channel, full curve] | – |

| Structure (SMILES) | Potency | activity change, negative = inhibition |
| --- | --- | --- |
| COC(=O)c1c(NC(C)=O)sc(Cc2ccccc2)c1C | – | inactive: -1.53% |
| O=C(COC(=O)C1COc2ccccc2O1)NC(=O)NC1CCCC1 (centres undefined) | – | inactive: 11.1% |
| Cc1ccccc1Nc1nc(-c2ccccc2)c(C(=O)Nc2cccnc2)s1 | inconclusive: 70.8 µM [inhibitor, single point] | – |
| COc1ccc(C(C(=O)NC2CCCCC2)N(C(=O)c2ccco2)c2ccccc2OC)cc1 (centres undefined) | – | inactive: -7.56% |
| NS(=O)(=O)c1ccc(CNC(=O)c2sccc2-c2ccccc2)cc1 | inconclusive: 6.31 µM [fluorescent, side channel, partial curve, poor fit] | – |
| Cc1ccc(-c2cc(-c3cccc(F)c3)n[nH]2)c(O)c1 | inconclusive: 8.91 µM [quencher, side channel, full curve, poor fit] | – |
| COc1ccc(-n2c(C)cc(/C=C3\SC(=S)N(Cc4ccco4)C3=O)c2C)cc1 | inconclusive: 35.5 µM [fluorescent, side channel, partial curve] | – |
| COc1ccccc1CCC(=O)Nc1ncc(C)s1 | inconclusive: 28.2 µM [fluorescent, side channel, partial curve, poor fit] | – |
| COC(=O)c1ccc(OC(=O)/C=C/c2ccco2)cc1 | – | inactive: 28.5% |
| COC(=O)C1=C(C)N(C)C(=O)NC1c1c(OC)ccc2ccccc12 (centres undefined) | – | inactive: 14.6% |
| C=CCN1C=CC=C/C1=C1\SC(=S)N(C)C1=O | inconclusive: 12.6 µM [fluorescent, side channel, single point] | – |
| O=C(CSc1nc(O)cc(=O)n1-c1ccccc1)Nc1ccc(Br)cn1 | inconclusive: 2.82 µM [inhibitor, full curve, poor fit] | – |
| O=C1C=C(O)c2cccc(O)c2C1=O | inconclusive: 15.8 µM [fluorescent, side channel, single point] | – |
| COc1ccc(OCC(O)CN(C)C(=O)/C=C/c2cccc([N+](=O)[O-])c2)cc1 (centres undefined) | inconclusive: 1.78 µM [inhibitor, full curve] | – |
| Cc1nc2ccccc2n2c(O)c(CC(=O)O)cc12 | inconclusive: 31.6 µM [fluorescent, side channel, partial curve] | – |
| CN(C)c1ccc(/C=C(\C#N)C(=O)Nc2nc3c(s2)CCN(Cc2ccccc2)C3)cc1 | inconclusive: 35.5 µM [fluorescent, side channel, partial curve] | – |
| O=c1oc2ccccc2c(N2CCCC2)c1CN1CCCC1 | inconclusive: 39.8 µM [fluorescent, side channel, single point] | – |
| CC1CCN(c2ccc(C(=O)O)cc2NS(=O)(=O)c2ccc(Br)cc2)CC1 | – | inactive: 0.0044% |
| O=C(C[n+]1ccc(C(=O)N/N=C/c2ccc(OCc3ccccc3)cc2)cc1)c1ccccc1 | inconclusive: 35.5 µM [quencher, side channel, partial curve] | – |
| CCN(CC)CCN(C(=O)c1ccc(S(=O)(=O)N(C)C2CCCCC2)cc1)c1nc2c(C)cccc2s1 | inconclusive: 7.94 µM [fluorescent, side channel, single point] | – |

Individual results from the entries so far.
Potency with O=C(C[n+]1ccc(C(=O)N/N=C/c2ccc(OCc3ccccc3)cc2)cc1)c1ccccc1 is entered as inconclusive: 35.5 µM [quencher, side channel, partial curve]
Potency with COc1ccc(OCC(O)CN(C)C(=O)/C=C/c2cccc([N+](=O)[O-])c2)cc1 (centres undefined) is entered as inconclusive: 1.78 µM [inhibitor, full curve]
